Source: article PMC12199426
These are yes or no findings as the source states them, for the method shown. Binding seen in cells or lysates may run through a third protein. Binding can be weak; no strength is given. Tags and fused reporters may be left off the sequences shown.

Amino acid sequences for entries named in this document (tags omitted). A change or cut given only in a name is not applied to a line headed by its entry.
UniProt Q9D287: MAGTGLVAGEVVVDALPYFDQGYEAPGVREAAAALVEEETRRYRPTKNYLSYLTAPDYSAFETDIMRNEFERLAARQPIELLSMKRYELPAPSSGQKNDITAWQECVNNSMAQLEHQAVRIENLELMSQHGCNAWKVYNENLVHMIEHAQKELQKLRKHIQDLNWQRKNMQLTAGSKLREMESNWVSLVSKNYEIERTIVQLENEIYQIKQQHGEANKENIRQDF

How the values were obtained:
Bcas2 ΔCC1 with FLAG tag = Bcas2 ΔCC1 with FLAG tag (UniProt Q9D287); assay: co-IP; 293T cells transfected with FLAG-tagged Bcas2 (full length or coiled-coil deletions) and SRSF7-HA; IP by the FLAG tag
Bcas2 ΔCC2 with FLAG tag = Bcas2 ΔCC2 with FLAG tag (UniProt Q9D287); assay: as above

- binding (Bcas2 ΔCC1 with FLAG tag): binds weakly
- binding (Bcas2 ΔCC2 with FLAG tag): binds weakly
B1: SRSF7-HA (protein, UniProt Q8BL97 1-267)
chain: MRSSARGRPLQAATAFFLSLFFFLRRFERGFWLWGGDSETKVYVGNLGTGAGKGELERAFSYYGPLRTVWIARNPPGFAFVEFEDPRDAEDAVRGLDGKVICGSRVRVELSTGMPRRSRFDRPPARRPFDPNDRCYECGEKGHYAYDCHRYSRRRRSRSRSRSHSRSRGRRYSRSRSRSRGRRSRSASPRRSRSVSLRRSRSASLRRSRSGSIIGSRYFQSRSRSRSRSRSISRPRSSRSKSRSPSPKRSRSPSGSPHRSASPERMD
